We go through one molecule from publication PMC9135408.

Results are given in words; binding and its absence hold for the method and conditions named. Binding seen in cells or lysates may run through a third protein. A yes stands for co-enrichment or nearness to the bait. Other partners may have been found. For some assays here: Tags and fused reporters may be left off the sequences shown.

The target in assay [1] is T1, FOXA1 (human (endogenous in LNCaP)) (UniProt P55317).
T1 sequence: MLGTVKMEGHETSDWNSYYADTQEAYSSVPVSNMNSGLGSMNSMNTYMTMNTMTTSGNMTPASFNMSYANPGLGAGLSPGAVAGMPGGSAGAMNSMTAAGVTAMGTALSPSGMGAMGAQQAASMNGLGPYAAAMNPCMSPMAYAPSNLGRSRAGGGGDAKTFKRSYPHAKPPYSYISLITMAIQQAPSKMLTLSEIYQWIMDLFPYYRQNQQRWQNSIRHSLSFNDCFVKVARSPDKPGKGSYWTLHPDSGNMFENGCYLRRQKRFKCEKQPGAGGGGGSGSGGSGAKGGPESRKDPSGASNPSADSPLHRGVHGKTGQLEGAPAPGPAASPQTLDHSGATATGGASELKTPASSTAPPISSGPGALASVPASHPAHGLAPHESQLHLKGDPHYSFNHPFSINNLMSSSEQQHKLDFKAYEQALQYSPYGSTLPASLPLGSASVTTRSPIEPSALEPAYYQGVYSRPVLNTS
The assay is described as follows: affinity purification with mass spectrometry; RIME: LNCaP cells treated with enzalutamide; fixed in 1% formaldehyde 10 min, lysed at 4°C in RIPA buffer, sonicated; endogenous FOXA1 precipitated with two FOXA1 antibodies against distinct epitopes, Protein A magnetic beads; unique peptides by ….

Assay [2] has as its target V5-tagged CREB5 (cAMP-responsive element binding protein 5), wild type (human) (UniProt Q02930). Kind of assay: affinity purification with mass spectrometry; RIME: LNCaP cells overexpressing the V5-tagged bait (CREB5, CREB5 L434P, CREB3 or luciferase), standard media or enzalutamide; 50 million cells fixed in 1% formaldehyde 10 min, lysed at 4°C in RIPA buffer, sonicated; V5 antibody overnight at 4°C, Protein A magnetic beads; proteins precipitated by the V5 antibody or luciferase subtracted; unique peptides by LC-MS/MS.

B1: TBX3 (protein, UniProt O15119 1-743)
chain: MSLSMRDPVIPGTSMAYHPFLPHRAPDFAMSAVLGHQPPFFPALTLPPNGAAALSLPGALAKPIMDQLVGAAETGIPFSSLGPQAHLRPLKTMEPEEEVEDDPKVHLEAKELWDQFHKRGTEMVITKSGRRMFPPFKVRCSGLDKKAKYILLMDIIAADDCRYKFHNSRWMVAGKADPEMPKRMYIHPDSPATGEQWMSKVVTFHKLKLTNNISDKHGFTLAFPSDHATWQGNYSFGTQTILNSMHKYQPRFHIVRANDILKLPYSTFRTYLFPETEFIAVTAYQNDKITQLKIDNNPFAKGFRDTGNGRREKRKQLTLQSMRVFDERHKKENGTSDESSSEQAAFNCFAQASSPAASTVGTSNLKDLCPSEGESDAEAESKEEHGPEACDAAKISTTTSEEPCRDKGSPAVKAHLFAAERPRDSGRLDKASPDSRHSPATISSSTRGLGAEERRSPVREGTAPAKVEEARALPGKEAFAPLTVQTDAAAAHLAQGPLPGLGFAPGLAGQQFFNGHPLFLHPSQFAMGGAFSSMAAAGMGPLLATVSGASTGVSGLDSTAMASAAAAQGLSGASAATLPFHLQQHVLASQGLAMSPFGSLFPYPYTYMAAAAAASSAAASSSVHRHPFLNLNTMRPRLRYSPYSIPVPVPDGSSLLTTALPSMAAAAGPLDGKVAALAASPASVAVDSGSELNSRSSTLSSSSMSLSPKLCAEKEAATSELQSIQRLVSGLEAKPDRSRSASP
Take B1: the binding result in assay [1] and in assay [2] was “binds” each time.
